Measured data: PubChem BioAssay AID1508588 (Peter MacCallum Cancer Centre, 2020)
Screen: 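Knock-downs boosting vemurafenib effects on melanoma cell growth or lactate release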 (primary screen). System: human WM266.4 melanoma cells (BRAF V600 mutant). Reagents: siRNA pool against human genes, 40 nM. Timing: 96 h from transfection to read-out. Conditions: vemurafenib 300 nM (about IC25), added 48 h after transfection, for 48 h; comparison arm got DMSO vehicle only. Measured: 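Ratios to non-targeting siRNA for cell gain, counted as DAPI nuclei after minus before drug and averaged over two replicates, and for absorbance-read medium lactate per cell; both binned into fold-change classes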. Scale: cell gain with vemurafenib: higher = more cell gain than with non-targeting siRNA; lactate per cell with vemurafenib: higher = more lactate made per cell. Hit rule: 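Enhancement is called by pairing each knock-down's vehicle-arm and drug-arm fold-change classes for viability or glycolysis; which class combinations qualify is not given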. Meaning of the calls: active = enhances vemurafenib effect; inactive = no enhancement seen.
The deposit covers about 18,000 reagents; below is an unselected part. Of all reagents, 790 (4.4%) are marked active. 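Calls rest on a combination of fold-change classes in drug and vehicle arms, not all shown here.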 Reagent sequences are not shown.

gene | cell gain with vemurafenib | lactate per cell with vemurafenib | activity call
NIFK | 0.08 | 2.28 | inactive
SLC25A47 | 0.32 | 1.1 | inactive
SUMO1 | 0.57 | 0.68 | inactive
EPHB4 | 1.24 | 0.84 | inactive
RFT1 | 0.18 | 1.12 | inactive
GJD3 | 0.75 | 0.6 | inactive
TRAPPC2L | 0.51 | 0.82 | inactive
HTR3D | 0.99 | 0.71 | inactive
ZSCAN18 | 0.62 | 1.11 | inactive
UBASH3A | 0.52 | 1.48 | inactive
MGRN1 | 1.06 | 1.02 | inactive
C8orf74 | 0.11 | 2.21 | inactive
MAGEC3 | 0.12 | 1.3 | inactive
C17orf78 | -0.07 | 2.5 | inactive
EHBP1 | 0.85 | 0.66 | inactive
PLCB3 | 0.27 | 0.66 | inactive
CHD7 | 0.66 | 1.31 | inactive
MXRA5 | 0.94 | 0.54 | inactive
MED15 | 0.43 | 1.86 | inactive
LAMB4 | 0.61 | 1.72 | inactive
GEMIN7 | 0.19 | 2.3 | inactive
NPY2R | 1.06 | 0.18 | inactive
USP29 | 0.92 | 1.25 | inactive
GIN1 | 0.28 | 0.52 | inactive
SRD5A1 | 0.22 | 1.62 | inactive
DUSP28 | 0.21 | 2.68 | inactive
CCDC186 | 1.2 | 1.11 | inactive
CLPS | 0.41 | 2.84 | inactive
TDRD6 | 0.85 | 1.18 | inactive
CARHSP1 | 0.11 | 2.04 | inactive
CLCA1 | 0.22 | 0.78 | inactive
PTMS | 0.49 | 1.07 | inactive
ABCC11 | 0.89 | 0.8 | inactive
DCTD | 0.82 | 0.53 | inactive
